The results in this text go back to PMC7862700.

The list shows a part of the results. The source does not settle which construct or isoform was used.

In this assay the target is T1, ETS1 (UniProt P14921).
T1 sequence: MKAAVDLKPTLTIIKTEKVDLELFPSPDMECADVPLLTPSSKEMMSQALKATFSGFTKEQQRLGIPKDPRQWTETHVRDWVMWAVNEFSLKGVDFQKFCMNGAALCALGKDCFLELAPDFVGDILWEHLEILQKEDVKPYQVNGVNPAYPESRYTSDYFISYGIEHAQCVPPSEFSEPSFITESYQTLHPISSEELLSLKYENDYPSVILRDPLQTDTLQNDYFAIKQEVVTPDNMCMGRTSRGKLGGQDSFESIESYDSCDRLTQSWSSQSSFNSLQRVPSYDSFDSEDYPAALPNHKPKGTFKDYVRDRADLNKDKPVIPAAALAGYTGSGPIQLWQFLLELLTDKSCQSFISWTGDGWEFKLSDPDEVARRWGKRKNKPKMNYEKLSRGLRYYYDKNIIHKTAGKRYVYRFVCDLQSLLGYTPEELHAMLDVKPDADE
The assay is described as follows: DAPPL (digital affinity profiling via proximity ligation, sequencing). The settings on record: 10 mM Tris-HCl pH 7.5, 50 mM NaCl, 1 mM DTT, 4% glycerol, room temperature, 30 min; GST-TFs on glutathione beads, 16-mer random dsDNA library, 0.1% …; high values mean tight binding; double strand, one strand shown; scale: fold enrichment (6-mer frequency, TF over GST control).
Sequence TGATGT displayed a binding signal of 1.32.

CCGCTC came in with a binding signal of 1.47.

In turn, CTACCG gave a binding signal of 1.49. Sequence AAACGC gave a binding signal of 1.29. As for TAGCCT, the figure is 1.25. TGGGGT: the binding signal was 1.11.

With CCATAC, the binding signal stood at 1.21. In turn, TGCAGC returned a binding signal of 1.05. As for ATGAAC, the figure is 1.24; as for CAAACC, 1.17. With TCTACC the figure was 1.48; with GTTTTT, 1.35; with TGACCG, 1.47. Sequence GTTTAT had a binding signal of 1.15. With TGGACA the figure was 0.99; with ATCCCA, 1.17. As for TGTGGT, the figure is 1.11.

Take ATAAAA: the binding signal is 1.15. TTTGCC: the binding signal was found to be 1.45. CCAACA: the binding signal was 1.02. Sequence GAATAT gave a binding signal of 1.04. ACCCCT registered a binding signal of 1.23.

On to GCGACC, for which the binding signal worked out at 1.14. On to TACAAC, for which the binding signal is 1.08. With AGCTTA the figure was 1.09; with CGACAT, 1.27. TCATCT yielded a binding signal of 1.19. As to TGACCA, the binding signal came to 1.19. In the case of GGGCTC, the binding signal came out at 1.03. As for CCTCGA, the figure is 1.39. Sequence CCCCTC showed a binding signal of 1.39. On to GAATTG, for which the binding signal was 1.1.

In turn, TTCAAT showed a binding signal of 1.39. With AGCTCA the figure was 1.13. As to AACCGG, the binding signal came to 1.41. As for AATGGT, the figure is 1.49; as for ACACTG, 1.12; as for GCTGCC, 1. Regarding TCACTA, the binding signal worked out at 1.16. On to CCCCAC, for which the binding signal is 1.24.
